Values from PubChem BioAssay AID1259254 (NCATS, 2017).
The deposit covers about 59,000 reagents; shown is a random part of them. Over the whole deposit, about 1,550 (2.6%) got an active call. 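G2 share is only a proxy for re-replication; each gene was hit by three separate siRNAs, and active genes were retested.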 A number with no mark means an inactive call. Further read-outs or replicates are left out here. Reagent sequences are not shown. Not stated in the record: the amount of reagent.

Test: 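Finding genes that stop cells copying their DNA twice in one cycle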 (primary screen)
System: human HCT116 colorectal cancer cells
Reagent: single siRNA against human genes
Timing: 3 days
Detection: 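Imaged Hoechst DNA stain sorts each cell into a cycle phase by DNA amount; per plate, G2 fraction set to 0% for non-targeting and 100% for GMNN siRNA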
Scale: G2 robust z-score: higher = more G2 cells, more excess DNA replication
Hit rule: 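An siRNA counts as active if its G2 robust z-score lies at least 5 MADs above the screen median; here such calls match roughly 38% of GMNN control or more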

Target gene	PubChem SID	G2 robust z-score
CDYL2	SID160756161	-0.395
CDYL2	SID160756162	2.14
CDYL2	SID160756163	-0.0523
RIGI	SID160730865	0.144
RIGI	SID160736616	-0.117
RIGI	SID160736617	0.432
STAG3L1	SID160733541	-1.3
STAG3L1	SID160741685	1.37
STAG3L1	SID160741686	0.0838
CTTN	SID160760243	-0.572
CTTN	SID160760254	-0.866
CTTN	SID160760264	-0.662
LOC441239	SID160733412	-0.685
LOC441239	SID160767967	-0.887
LOC441239	SID160767968	-0.738
CFAP61	SID160737586	2.34
CFAP61	SID160737587	0.446
CFAP61	SID160737589	0.129
TAS2R45	SID160762626	0.59
TAS2R45	SID160762627	-0.268
TAS2R45	SID160762628	-0.341
SMYD4	SID160755053	0.709
SMYD4	SID160755054	0.1
SMYD4	SID160755055	1.79
SCGB1D4	SID160733359	-0.156
SCGB1D4	SID160767541	-0.218
SCGB1D4	SID160767542	-0.874
ALMS1	SID160719391	1.06
ALMS1	SID160719392	-0.384
ALMS1	SID160719393	-0.271
SEPTIN2	SID160777932	2.74
SEPTIN2	SID160777933	-0.621
SEPTIN2	SID160777935	1.08
ADAMTS14	SID160757885	2.98
ADAMTS14	SID160757886	0.373
ADAMTS14	SID160757887	-0.515
PAQR3	SID160759251	0.163
PAQR3	SID160759252	0.0994
PAQR3	SID160759253	-0.837
MDM2	SID160731225	5.09 (active)
MDM2	SID160777091	1.83
MDM2	SID160777093	0.961
NUTM2G	SID160768008	-0.159
NUTM2G	SID160768009	-0.865
NUTM2G	SID160768010	2.97
SCLY	SID160740969	-0.529
SCLY	SID160740970	-0.0647
SCLY	SID160740971	-0.345
NDUFAF6	SID160757519	-0.387
NDUFAF6	SID160757521	-0.606
NDUFAF6	SID160757522	0.281
LCN2	SID160776548	-0.807
LCN2	SID160776549	-1.18
LCN2	SID160776550	-1.29
DMBT1	SID160754888	-0.48
DMBT1	SID160754898	0.673
DMBT1	SID160754909	-0.622
EFCAB5	SID160765308	0.44
EFCAB5	SID160765309	2.4
EFCAB5	SID160765310	-0.368
LZTS1	SID160730131	-0.158
LZTS1	SID160730132	2.59
LZTS1	SID160730133	-0.422
ABCA3	SID160776980	-0.921
ABCA3	SID160776991	-1.47
ABCA3	SID160777001	-0.913
QKI	SID160722221	-0.12
QKI	SID160722222	-0.303
QKI	SID160722223	1.54
GOLGA6L7	SID160726640	-1.11
GOLGA6L7	SID160733818	-0.00313
GOLGA6L7	SID160768906	-0.655
GOLGA6L7	SID160768907	-0.941
GOLGA6L7	SID160771696	-0.817
GOLGA6L7	SID160771697	3.9
TMEM182	SID160757008	-0.467
TMEM182	SID160757009	0.955
TMEM182	SID160757010	-0.168
TMEM207	SID160757114	-1.07
TMEM207	SID160757115	-0.843
TMEM207	SID160757116	-0.409
VPS18	SID160746423	0.279
VPS18	SID160746424	-0.636
VPS18	SID160746425	0.837
SLC35F5	SID160750285	-0.641
SLC35F5	SID160750286	-0.666
SLC35F5	SID160750287	-1.17

Laid out differently: entries from further up.
Target gene,PubChem SID,G2 robust z-score
SCGB1D4,SID160733359,-0.156
SCGB1D4,SID160767541,-0.218
SCGB1D4,SID160767542,-0.874
ALMS1,SID160719391,1.06
ALMS1,SID160719392,-0.384
ALMS1,SID160719393,-0.271
SEPTIN2,SID160777932,2.74
SEPTIN2,SID160777933,-0.621
SEPTIN2,SID160777935,1.08
ADAMTS14,SID160757885,2.98
ADAMTS14,SID160757886,0.373
ADAMTS14,SID160757887,-0.515
PAQR3,SID160759251,0.163
